Values of other authors as cited in US20250108142A1, “METHODS FOR TREATING LEAKAGE FROM A GASTROINTESTINAL SITE” (Ethicon, Inc., priority 2023, published 2025).

Conditions: cited from earlier work

**Q.** What does the source list for `CC(C)Cc1ccc(C(C)C(=O)O)cc1` (centres unmarked) [Ibuprofen, ibuprofen]?
**A.** solubility in water: about 21 mg/l; solubility in water (words): minimum solubility
